Experimental data taken from patent US20110091386A1 (GENE TECHNO SCIENCE, published 2011).
No constants are given. Whether binding was seen depends on the method and setting. Some results given as binding are weak or reduced against the parent protein; the word gives no strength.

By UniProt entry, the sequences of proteins in these tests, tags left out. Residues count along the entry.
UniProt P02751, residues 32-2477: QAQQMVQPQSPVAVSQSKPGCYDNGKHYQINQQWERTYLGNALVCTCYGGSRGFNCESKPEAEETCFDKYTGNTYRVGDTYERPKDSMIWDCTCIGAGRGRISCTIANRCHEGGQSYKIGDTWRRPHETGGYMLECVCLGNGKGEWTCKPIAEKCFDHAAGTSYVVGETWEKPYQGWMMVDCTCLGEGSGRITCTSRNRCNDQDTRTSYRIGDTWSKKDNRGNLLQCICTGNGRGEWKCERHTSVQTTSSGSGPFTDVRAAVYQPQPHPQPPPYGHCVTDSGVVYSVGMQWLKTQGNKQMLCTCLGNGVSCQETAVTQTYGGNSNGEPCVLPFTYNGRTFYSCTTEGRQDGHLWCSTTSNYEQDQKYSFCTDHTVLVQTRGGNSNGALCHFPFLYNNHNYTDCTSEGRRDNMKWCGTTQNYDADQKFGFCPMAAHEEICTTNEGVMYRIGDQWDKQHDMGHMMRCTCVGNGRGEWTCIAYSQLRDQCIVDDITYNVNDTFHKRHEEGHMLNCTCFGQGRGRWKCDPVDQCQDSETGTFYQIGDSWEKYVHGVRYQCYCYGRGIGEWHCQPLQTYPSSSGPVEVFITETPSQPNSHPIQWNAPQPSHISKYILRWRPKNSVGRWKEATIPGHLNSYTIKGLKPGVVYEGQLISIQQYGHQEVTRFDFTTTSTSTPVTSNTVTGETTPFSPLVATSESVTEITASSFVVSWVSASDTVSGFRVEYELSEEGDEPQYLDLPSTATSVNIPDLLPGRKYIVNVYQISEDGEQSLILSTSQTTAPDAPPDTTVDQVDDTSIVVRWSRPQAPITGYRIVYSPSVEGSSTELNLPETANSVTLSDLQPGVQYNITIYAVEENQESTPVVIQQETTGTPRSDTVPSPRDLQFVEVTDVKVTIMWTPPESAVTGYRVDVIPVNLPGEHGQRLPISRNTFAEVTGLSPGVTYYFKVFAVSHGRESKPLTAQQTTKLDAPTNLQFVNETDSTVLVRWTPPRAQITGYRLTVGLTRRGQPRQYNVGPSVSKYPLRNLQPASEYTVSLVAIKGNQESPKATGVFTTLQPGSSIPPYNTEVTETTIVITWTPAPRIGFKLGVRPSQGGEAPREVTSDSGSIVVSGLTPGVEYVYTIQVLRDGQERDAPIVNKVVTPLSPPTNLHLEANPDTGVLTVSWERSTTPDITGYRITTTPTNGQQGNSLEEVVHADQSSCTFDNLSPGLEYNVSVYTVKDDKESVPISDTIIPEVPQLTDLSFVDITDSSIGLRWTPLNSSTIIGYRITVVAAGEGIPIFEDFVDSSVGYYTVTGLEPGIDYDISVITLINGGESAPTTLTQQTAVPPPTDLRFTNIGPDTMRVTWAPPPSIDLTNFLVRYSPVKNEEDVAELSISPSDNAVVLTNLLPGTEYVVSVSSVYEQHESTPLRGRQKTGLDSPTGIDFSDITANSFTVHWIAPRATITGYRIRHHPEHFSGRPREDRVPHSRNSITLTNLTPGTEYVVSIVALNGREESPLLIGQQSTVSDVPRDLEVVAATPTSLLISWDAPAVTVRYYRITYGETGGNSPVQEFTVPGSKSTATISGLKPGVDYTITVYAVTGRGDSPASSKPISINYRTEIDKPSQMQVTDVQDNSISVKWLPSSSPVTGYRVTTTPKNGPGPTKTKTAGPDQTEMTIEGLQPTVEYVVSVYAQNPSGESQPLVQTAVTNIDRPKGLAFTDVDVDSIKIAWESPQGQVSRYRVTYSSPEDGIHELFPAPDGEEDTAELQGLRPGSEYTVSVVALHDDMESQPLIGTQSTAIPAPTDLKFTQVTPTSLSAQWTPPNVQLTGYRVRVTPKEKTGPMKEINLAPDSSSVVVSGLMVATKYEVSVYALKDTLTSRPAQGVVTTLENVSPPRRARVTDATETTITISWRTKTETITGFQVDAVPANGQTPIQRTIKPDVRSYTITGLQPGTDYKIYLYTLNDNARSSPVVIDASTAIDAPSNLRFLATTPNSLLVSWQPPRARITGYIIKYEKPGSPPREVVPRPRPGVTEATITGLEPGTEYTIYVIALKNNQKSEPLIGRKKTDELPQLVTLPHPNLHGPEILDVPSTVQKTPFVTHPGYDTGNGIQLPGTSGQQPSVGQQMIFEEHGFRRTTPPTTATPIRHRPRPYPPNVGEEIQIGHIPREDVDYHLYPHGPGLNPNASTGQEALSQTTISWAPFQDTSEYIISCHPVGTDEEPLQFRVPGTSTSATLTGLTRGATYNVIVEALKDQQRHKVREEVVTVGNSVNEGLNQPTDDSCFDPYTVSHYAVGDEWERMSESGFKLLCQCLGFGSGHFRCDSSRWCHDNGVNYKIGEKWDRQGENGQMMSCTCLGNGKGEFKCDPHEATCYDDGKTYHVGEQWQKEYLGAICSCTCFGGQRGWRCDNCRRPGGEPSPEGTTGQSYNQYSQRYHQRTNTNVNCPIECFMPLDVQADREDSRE

Biological target: human fibronectin (human) (UniProt P02751)
Test: ELISA, protein coated at 5 ug/ml, HRP anti-murine IgG, A490

binding: binds
B1: mouse anti-RGD monoclonal antibody 33E10 (FERM BP-10440) (antibody, mouse IgG1, V domains shown)
VH: EVKLVESGGGLVQPGGSLSLSCAASGFTFTDYYMIWVRQPPGKALEWLGFIRNKANGYTTEYSASVKGRFTISRDNSQSILYLQMNALRAEDSATYYCARGAYWGQGTLVTVSA
VL: DVLMTQTPLSLPVSLGDQASISCRSSQSIVHSNGNTYLEWYLQKPGQSPKLLIYRVSNRFSGVPDRFSGSGSGTDFTLKISRVEAEDLGVYYCFQGSFVPWTFGGGTKLEIK
notes: Mouse IgG1 from hybridoma, purified on an antigen peptide column
